Assay results from the supplement of paper PMC5949888.
± gives the standard deviation of the averaged measurements. Most values lie at the floor of the assay. Slopes are relative: functional sequences can read slightly below zero.

The substances below were run on Saccharomyces cerevisiae PS128 hsf1 delta, HSF1(1-493) fusion (assay: growth estimate (transactivation domain function in HSF1 fusion, heat-shock survival) (a.u. (slope of normalised read count over time)); higher = stronger growth at 37°C, i.e. more transactivation activity). Settings: library: random library.
Protocol: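 Random 60-nt DNA library encoding peptides of up to 20 aa, fused to the C-terminus of yeast HSF1 residues 1-493 (C-terminal TAD deleted) and expressed from the native HSF1 promoter on a CEN plasmid in hsf1-deleted S. cerevisiae PS128. Cells were selected at 37°C on -trp 5-FOA plates for 0, 2, 4, 6 and 8 days and amplicons were sequenced. Growth estimate is the slope of a robust linear fit of total-sum-normalised read counts (normalised to the first time point) over time, using at least 2 replicates. Sequences are classed functional (TAD activity) above a threshold of -0.13, set from stop-codon control sequences.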
NEYDRRTSITHTWRVPPLVI gave a growth estimate of under -0.25. For STVIMKGRRKDIAGPMIVNT, the growth estimate was under -0.25. Substance CLLEQDGPNTLDFSWVNCPA has a growth estimate of -0.245. FLCLHALHLYGCGTLIAYRS showed a growth estimate of under -0.25. Substance GLLLGCLLQTPGSEGFLHDF has a growth estimate of under -0.25. RLDSDRL was tested, and the growth estimate was under -0.25. TLMRPPSGYSK showed a growth estimate of under -0.25. With WPAFAERERCSFGSRSSDAC the growth estimate was under -0.25. For TFHLLLLSS, the growth estimate was under -0.25. With TRRRNF the growth estimate was under -0.25. VPRPRAEVLV showed a growth estimate of under -0.25. KGWPAVLDVPRGGVTAHSTY was tested, and the growth estimate was under -0.25. AVRSK was tested, and the growth estimate was under -0.25. NGSK showed a growth estimate of under -0.25. Work on PSRHLEQLGI yielded a growth estimate of under -0.25. Work on EWQFCPFV yielded a growth estimate of -0.0769. Substance SPICKLLLTATREQCTLSVE has a growth estimate of under -0.25. Substance NRVSRILKVHKWRDHCCHSR has a growth estimate of under -0.25. DVSTRCPSL gave a growth estimate of under -0.25. AGGCE showed a growth estimate of -0.197. YEGIC showed a growth estimate of under -0.25. GTL was tested, and the growth estimate was under -0.25. With CTHRTKVDVRTVEGHRTLTQ the growth estimate was under -0.25. Substance ADLGLD has a growth estimate of under -0.25. RYKG showed a growth estimate of under -0.25. Work on SGGGQNQGTGRFGIASL yielded a growth estimate of under -0.25. Work on KVTGLHVSTEDRKHTKRYIS yielded a growth estimate of under -0.25. ASSLHQTPRFAGFGVTYVGG showed a growth estimate of under -0.25. Work on PGVIVRYPRREFNIYGQLTE yielded a growth estimate of under -0.25. Work on GHWMSKEQEIQFITHALSTS yielded a growth estimate of under -0.25. GGIQEASLAHIQEEWVGQSS was tested, and the growth estimate was under -0.25. Substance STAEQDR has a growth estimate of under -0.25. In the case of VTNAVRVPP, the growth estimate is reported as under -0.25. KGAWSARIWENEFYVLRAGR gave a growth estimate of under -0.25. With CRWSAQSAGKPISLLV the growth estimate was under -0.25. FDQLTHSSRQR showed a growth estimate of under -0.25. GLVTANITYMPGGKLVSSHL gave a growth estimate of -0.245. With LSFRFGRPSMVAARRPLASV the growth estimate was under -0.25. Substance TGAQDDPRYPPISPAVEAHM has a growth estimate of under -0.25. SVR gave a growth estimate of under -0.25. For SREIAPARWLLCKGVGRDPR, the growth estimate was under -0.25. Substance VWAAFFNSGSSN has a growth estimate of under -0.25. With GSSRLRNGLLSNSP the growth estimate was under -0.25. SSFSGRFDRCTYSNHGFLGR gave a growth estimate of under -0.25. Work on GVTAADRILSQSKGLRGFAG yielded a growth estimate of under -0.25. AGARGPLLQAPMSWFRQFVT was tested, and the growth estimate was under -0.25. Substance LVPKGGR has a growth estimate of under -0.25. LGILIKVQEGH gave a growth estimate of under -0.25. With KEGR the growth estimate was under -0.25. Substance YDSCSAGISRYKGRGRATV has a growth estimate of under -0.25. RGKYTDGKPHCWSAAQNTGA was tested, and the growth estimate was under -0.25. CYSH showed a growth estimate of under -0.25. SHSSRSW was tested, and the growth estimate was under -0.25. In the case of VTKGRVGLLRLNV, the growth estimate is reported as under -0.25. For SQASLLRRLK, the growth estimate was under -0.25. With GGLRDRRATMRRRPFGRDAG the growth estimate was under -0.25. LYHP showed a growth estimate of under -0.25. SCGRTESAIRHCGAQLRASS gave a growth estimate of under -0.25. VVRAPD gave a growth estimate of under -0.25. For RVIQSRGMPVEKYEHWFKSQ, the growth estimate was under -0.25. LQIY was tested, and the growth estimate was under -0.25. Substance KGIIRAGHS has a growth estimate of under -0.25. SNISDEVPHPLAIHNDYATT was tested, and the growth estimate was under -0.25. GAGDATIWSGRMYRGASLSA showed a growth estimate of under -0.25. Substance RWGGWTVS has a growth estimate of under -0.25. In the case of EERM, the growth estimate is reported as under -0.25. QFHYTA was tested, and the growth estimate was under -0.25. Work on EDVRNNYKRECGSRHDDKAY yielded a growth estimate of under -0.25. Substance GISPLFDVSTAFVVL has a growth estimate of under -0.25. In the case of HNAMDIVRMRL, the growth estimate is reported as under -0.25. HCTSFITRDNGHSRKLHIHW showed a growth estimate of under -0.25. VHGVHGMRLTLKLHQGPYFR gave a growth estimate of under -0.25. LHINQVGTYLAARL showed a growth estimate of under -0.25. CRVNKLFSRTLY gave a growth estimate of under -0.25. KGVE showed a growth estimate of under -0.25. In the case of AQSDASVVMVFLTFLVCFRG, the growth estimate is reported as under -0.25. AGDHAHWLFKPASVN showed a growth estimate of under -0.25. PHNR showed a growth estimate of under -0.25. For PLRTSPQ, the growth estimate was under -0.25. GILDEALSIRVIRKNPK was tested, and the growth estimate was under -0.25. TSSKHLWFIEARFVGT showed a growth estimate of under -0.25. With TDVGTISRNHCLIHRNPT the growth estimate was under -0.25. In the case of PLSTPAT, the growth estimate is reported as under -0.25. GWFGV was tested, and the growth estimate was under -0.25. Work on VESGASLGHRTV yielded a growth estimate of under -0.25. IDT was tested, and the growth estimate was -0.2484 ± 0.0023. With FATLRTVRGGTGVIFQSSVR the growth estimate was under -0.253. In the case of HSSGLALWPIADC, the growth estimate is reported as -0.0302. Work on IRSSTFDH yielded a growth estimate of under -0.25. TMTLVEFNSAQNFFIPILTV showed a growth estimate of under -0.25. LVVPMHHARVSIYLLSMGST was tested, and the growth estimate was under -0.25. PRQQSSVAELMCFCRRRVGY showed a growth estimate of under -0.25. Work on STGVLVGVDQIHGNGVEL yielded a growth estimate of under -0.25. With GEA the growth estimate was under -0.25. In the case of PPDTHQCLATHPSSLVAQLL, the growth estimate is reported as under -0.25. RDSEMPLGAAPVSEGRLTGH was tested, and the growth estimate was under -0.25. For RLDRVGVWTVVAKCGVFNSI, the growth estimate was under -0.25. With IFRYGQCGQFPLNKVAPLSS the growth estimate was under -0.25. Work on RRCIGDNSDRHIASNARQRS yielded a growth estimate of under -0.25. With MYRPGAGHRQVILGIPIELV the growth estimate was under -0.25. VFGLPCPARGTYLRAAS gave a growth estimate of under -0.25. In the case of DQERQRQSEAREGHCGRRSD, the growth estimate is reported as under -0.25. Work on KPISINRPPPPSLQRPVQPF yielded a growth estimate of under -0.25. Substance VKRVPKNGPSS has a growth estimate of under -0.25. LDDVEGPRVQHSET was tested, and the growth estimate was under -0.25. GALWPLSPHLLSRSRIYICA gave a growth estimate of under -0.25. In the case of TMSTCLKREYHMPGGAC, the growth estimate is reported as under -0.25. RHTSERTIALLSFRHVIHQG was tested, and the growth estimate was under -0.25. With VGLGRVDTKRCTFDCTLSEE the growth estimate was under -0.25. PRHSRKWHGHRGSLLPASRG was tested, and the growth estimate was under -0.25. For RVGS, the growth estimate was under -0.25. PGG gave a growth estimate of under -0.25. In the case of EVTLDRPVREGPVAYSKSR, the growth estimate is reported as under -0.25. In the case of GLTCCCPSLMSVRAMVETQS, the growth estimate is reported as under -0.25. RVARPYVH was tested, and the growth estimate was under -0.25. IRAAEPHSAEPIVQRHSFSG showed a growth estimate of under -0.25. For ERCLVTRRSHIHLTLTSLLL, the growth estimate was under -0.25. ESRIVVQAVSRLHGTINLIQ gave a growth estimate of under -0.25. QLKIITRALGELNKLVWVRC was tested, and the growth estimate was under -0.25. VRWETRGRYKLSKGKFCAVA was tested, and the growth estimate was under -0.25. Work on LEMWAFLSCVESVRGDDIRC yielded a growth estimate of under -0.25. SSGRAVGPKGTTSAK gave a growth estimate of under -0.25. For FQPSPTTFGGLST, the growth estimate was under -0.25. In the case of DQVTQHG, the growth estimate is reported as -0.246. Substance FNPIITGIHGVPNCYCGGLT has a growth estimate of under -0.25. QARGGKSVNSSLY was tested, and the growth estimate was under -0.25. TSCQ showed a growth estimate of under -0.25. In the case of RRCLAHQ, the growth estimate is reported as under -0.25. VQLSVMLGPGAVVS gave a growth estimate of under -0.25. Work on LLYGLPGPSVQNPDPKRCRT yielded a growth estimate of under -0.25. In the case of SPVFRSEPHVFQGWACSWPR, the growth estimate is reported as under -0.25. Work on RLDHSLHQFICPYDGTGSGE yielded a growth estimate of under -0.25. Substance VMVQCPCTPGSRTTLRMSCI has a growth estimate of under -0.25. LGATYDVVFRDLVVDPGRYV was tested, and the growth estimate was -0.175. VVGQAAPG showed a growth estimate of under -0.25. TPNRLTG was tested, and the growth estimate was under -0.25. For THGDCGIHVQRQARHAVDPQ, the growth estimate was under -0.25. In the case of SRRCPFNRFGKARPTFNICL, the growth estimate is reported as -0.25. For PHRPLSEILHHKAVLYFRWR, the growth estimate was under -0.25. Substance NNILRENPVVVTSMSSLSAS has a growth estimate of under -0.25. PGCHLVDTMTGSLVSHTTAQ gave a growth estimate of under -0.25. In the case of CCLTRWHNI, the growth estimate is reported as under -0.25. VELIKAPYLVLLTLGLRGFQ was tested, and the growth estimate was under -0.25. Work on KPTWLPRVLKVSRGGFHSSH yielded a growth estimate of under -0.25. Substance LCLRRLRSPVHSQYFKEPLR has a growth estimate of -0.246.
